# Results are given in words; binding and its absence hold for the method and conditions named. Some binding calls cover weakened binding; strength is not graded here.
# The chains behind the UniProt entries cited, without tags or fusion partners. Where a name states a change or a piece, a line headed by the entry shows the natural chain unless it says otherwise.
# UniProt Q7Z6J0: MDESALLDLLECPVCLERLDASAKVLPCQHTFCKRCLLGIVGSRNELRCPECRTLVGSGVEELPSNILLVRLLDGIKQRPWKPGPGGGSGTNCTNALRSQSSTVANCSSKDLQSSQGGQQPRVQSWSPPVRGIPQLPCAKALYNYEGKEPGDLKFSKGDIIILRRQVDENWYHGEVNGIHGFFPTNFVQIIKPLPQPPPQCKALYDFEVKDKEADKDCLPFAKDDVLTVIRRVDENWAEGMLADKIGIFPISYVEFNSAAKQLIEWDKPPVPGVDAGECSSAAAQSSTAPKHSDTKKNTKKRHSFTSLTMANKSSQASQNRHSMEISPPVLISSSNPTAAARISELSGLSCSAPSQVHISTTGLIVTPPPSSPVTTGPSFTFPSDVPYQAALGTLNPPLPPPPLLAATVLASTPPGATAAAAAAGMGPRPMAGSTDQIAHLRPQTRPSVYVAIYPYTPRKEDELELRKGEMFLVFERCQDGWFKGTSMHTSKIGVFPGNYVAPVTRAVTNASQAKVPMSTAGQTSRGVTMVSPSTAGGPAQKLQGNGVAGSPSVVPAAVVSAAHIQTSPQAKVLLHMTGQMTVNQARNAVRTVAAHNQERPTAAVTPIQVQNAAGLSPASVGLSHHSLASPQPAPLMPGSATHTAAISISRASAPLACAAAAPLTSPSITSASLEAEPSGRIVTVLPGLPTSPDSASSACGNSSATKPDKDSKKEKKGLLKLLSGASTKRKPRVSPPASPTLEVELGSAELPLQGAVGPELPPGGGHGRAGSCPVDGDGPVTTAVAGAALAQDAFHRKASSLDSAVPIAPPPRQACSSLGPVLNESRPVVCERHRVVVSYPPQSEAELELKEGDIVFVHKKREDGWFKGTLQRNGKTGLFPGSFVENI
# UniProt Q9H3P7: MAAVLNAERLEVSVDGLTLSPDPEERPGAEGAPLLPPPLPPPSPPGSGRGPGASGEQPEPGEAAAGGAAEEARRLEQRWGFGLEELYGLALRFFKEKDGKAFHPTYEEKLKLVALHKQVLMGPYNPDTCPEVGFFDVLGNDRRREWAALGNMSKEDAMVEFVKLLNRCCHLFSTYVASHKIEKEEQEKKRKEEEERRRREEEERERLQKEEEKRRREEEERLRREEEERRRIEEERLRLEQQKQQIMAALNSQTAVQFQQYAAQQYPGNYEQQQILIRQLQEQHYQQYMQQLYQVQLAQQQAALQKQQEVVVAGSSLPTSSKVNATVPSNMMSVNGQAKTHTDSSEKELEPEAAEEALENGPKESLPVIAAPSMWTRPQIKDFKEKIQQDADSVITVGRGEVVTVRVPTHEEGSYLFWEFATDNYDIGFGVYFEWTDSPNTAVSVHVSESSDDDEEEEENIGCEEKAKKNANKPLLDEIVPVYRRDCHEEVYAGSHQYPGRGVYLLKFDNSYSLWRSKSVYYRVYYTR
# UniProt P10644: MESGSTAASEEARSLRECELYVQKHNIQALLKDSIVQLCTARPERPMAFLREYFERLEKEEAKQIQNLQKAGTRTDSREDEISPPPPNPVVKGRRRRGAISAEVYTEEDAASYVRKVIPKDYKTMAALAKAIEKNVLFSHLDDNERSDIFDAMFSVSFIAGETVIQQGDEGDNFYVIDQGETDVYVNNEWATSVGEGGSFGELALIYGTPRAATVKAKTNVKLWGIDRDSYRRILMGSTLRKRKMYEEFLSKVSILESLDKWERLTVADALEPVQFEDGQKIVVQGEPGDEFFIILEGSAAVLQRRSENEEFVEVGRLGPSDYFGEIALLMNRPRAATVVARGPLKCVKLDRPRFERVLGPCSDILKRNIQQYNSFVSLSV
# UniProt Q13191: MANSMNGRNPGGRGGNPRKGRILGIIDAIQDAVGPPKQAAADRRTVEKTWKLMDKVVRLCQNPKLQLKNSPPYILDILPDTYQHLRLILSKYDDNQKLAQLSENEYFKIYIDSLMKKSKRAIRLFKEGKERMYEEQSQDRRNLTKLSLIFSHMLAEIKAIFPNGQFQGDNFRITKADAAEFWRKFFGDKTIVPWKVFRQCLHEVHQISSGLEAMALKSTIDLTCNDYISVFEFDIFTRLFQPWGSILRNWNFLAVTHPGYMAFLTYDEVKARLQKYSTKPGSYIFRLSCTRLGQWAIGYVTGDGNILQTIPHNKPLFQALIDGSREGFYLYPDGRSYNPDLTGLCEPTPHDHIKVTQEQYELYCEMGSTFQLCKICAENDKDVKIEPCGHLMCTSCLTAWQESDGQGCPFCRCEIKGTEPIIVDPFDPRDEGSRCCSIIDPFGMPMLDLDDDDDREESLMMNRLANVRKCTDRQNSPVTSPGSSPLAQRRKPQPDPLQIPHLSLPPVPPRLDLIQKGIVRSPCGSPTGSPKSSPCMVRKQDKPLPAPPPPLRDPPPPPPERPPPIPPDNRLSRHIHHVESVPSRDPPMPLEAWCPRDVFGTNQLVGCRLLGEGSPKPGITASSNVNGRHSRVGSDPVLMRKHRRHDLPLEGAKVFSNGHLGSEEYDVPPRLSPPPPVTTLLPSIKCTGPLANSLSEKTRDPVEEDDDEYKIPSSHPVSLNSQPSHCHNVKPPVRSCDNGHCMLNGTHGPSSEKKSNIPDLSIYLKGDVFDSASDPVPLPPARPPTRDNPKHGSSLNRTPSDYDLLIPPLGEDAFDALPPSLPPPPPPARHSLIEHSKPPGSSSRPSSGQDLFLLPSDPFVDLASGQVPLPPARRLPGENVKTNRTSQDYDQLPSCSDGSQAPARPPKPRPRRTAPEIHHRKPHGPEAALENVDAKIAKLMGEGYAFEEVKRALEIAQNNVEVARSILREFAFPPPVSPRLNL
# B1: GOSR2 (Hs.432552), HeLa cDNA prey clone (protein, human, UniProt O14653 1-212, looked up, not shown: large carriers)
# chain: MDPLFQQTHKQVHEIQSCMGRLETADKQSVHIVENEIQASIDQIFSRLERLEILSSKEPPNKRQNARLRVDQLKYDVQHLQTALRNFQHRRHAREQQERQREELLSRTFTTNDSDTTIPMDESLQFNSSLQKVHNGMDDLILDGHNILDGLRTQRLTLKGTQKKILDIANMLGLSNTVMRLIEKRAFQDKYFMIGGMLLTCVVMFLVVQYLT
# B2: ARHV (CHP) (Hs.163834), HeLa cDNA prey clone (protein, human, UniProt Q96L33 1-236, looked up, not shown: large carriers)
# chain: MPPRELSEAEPPPLRAPTPPPRRRSAPPELGIKCVLVGDGAVGKSSLIVSYTCNGYPARYRPTALDTFSVQVLVDGAPVRIELWDTAGQEDFDRLRSLCYPDTDVFLACFSVVQPSSFQNITEKWLPEIRTHNPQAPVLLVGTQADLRDDVNVLIQLDQGGREGPVPQPQAQGLAEKIRACCYLECSALTQKNLKEVFDSAILSAIEHKARLEKKLNAKGVRTLSRCRWKKFFCFV
# B3: SPG20 (spartin) (Hs.205088), HeLa cDNA prey clone (protein, human, UniProt Q8N0X7 1-666, looked up, not shown: large carriers)
# chain: MEQEPQNGEPAEIKIIREAYKKAFLFVNKGLNTDELGQKEEAKNYYKQGIGHLLRGISISSKESEHTGPGWESARQMQQKMKETLQNVRTRLEILEKGLATSLQNDLQEVPKLYPEFPPKDMCEKLPEPQSFSSAPQHAEVNGNTSTPSAGAVAAPASLSLPSQSCPAEAPPAYTPQAAEGHYTVSYGTDSGEFSSVGEEFYRNHSQPPPLETLGLDADELILIPNGVQIFFVNPAGEVSAPSYPGYLRIVRFLDNSLDTVLNRPPGFLQVCDWLYPLVPDRSPVLKCTAGAYMFPDTMLQAAGCFVGVVLSSELPEDDRELFEDLLRQMSDLRLQANWNRAEEENEFQIPGRTRPSSDQLKEASGTDVKQLDQGNKDVRHKGKRGKRAKDTSSEEVNLSHIVPCEPVPEEKPKELPEWSEKVAHNILSGASWVSWGLVKGAEITGKAIQKGASKLRERIQPEEKPVEVSPAVTKGLYIAKQATGGAAKVSQFLVDGVCTVANCVGKELAPHVKKHGSKLVPESLKKDKDGKSPLDGAMVVAASSVQGFSTVWQGLECAAKCIVNNVSAETVQTVRYKYGYNAGEATHHAVDSAVNVGVTAYNINNIGIKAMVKKTATQTGHTLLEDYQIVDNSQRENQEGAANVNVRGEKDEQTKEVKEAKKKDK
# B4: RALA, HeLa cDNA prey clone (protein, human, UniProt P11233 1-206, looked up, not shown: large carriers)
# chain: MAANKPKGQNSLALHKVIMVGSGGVGKSALTLQFMYDEFVEDYEPTKADSYRKKVVLDGEEVQIDILDTAGQEDYAAIRDNYFRSGEGFLCVFSITEMESFAATADFREQILRVKEDENVPFLLVGNKSDLEDKRQVSVEEAKNRAEQWNVNYVETSAKTRANVDKVFFDLMREIRARKMEDSKEKNGKKKRKSLAKRIRERCCIL
# B5: HERPUD1 (Hs.146393), HeLa cDNA prey clone (protein, human, UniProt Q15011 1-391, looked up, not shown: large carriers)
# chain: MESETEPEPVTLLVKSPNQRHRDLELSGDRGWSVGHLKAHLSRVYPERPRPEDQRLIYSGKLLLDHQCLRDLLPKQEKRHVLHLVCNVKSPSKMPEINAKVAESTEEPAGSNRGQYPEDSSSDGLRQREVLRNLSSPGWENISRPEAAQQAFQGLGPGFSGYTPYGWLQLSWFQQIYARQYYMQYLAATAASGAFVPPPSAQEIPVVSAPAPAPIHNQFPAENQPANQNAAPQVVVNPGANQNLRMNAQGGPIVEEDDEINRDWLDWTYSAATFSVFLSILYFYSSLSRFLMVMGATVVMYLHHVGWFPFRPRPVQNFPNDGPPPDVVNQDPNNNLQEGTDPETEDPNHLPPDRDVLDGEQTSPSFMSTAWLVFKTFFASLLPEGPPAIAN
# What was measured:
# [1] = target: GAL4 POSHdR bait (pPL269-pGBK-T7 GAL4 POSHdR; aa 53-888 of POSH, RING domain deleted) (human) (UniProt Q7Z6J0); assay: yeast two-hybrid screen, GAL4-BD POSHdR bait against HeLa cDNA GAL4-AD prey library
# [2] = target: GAL4 POSHdR bait (pPL269-pGBK-T7 GAL4 POSHdR; aa 53-888 of POSH, RING domain deleted) (human) (UniProt Q7Z6J0); assay: yeast two-hybrid screen (Table 7: POSH-APs Identified by Yeast Two-Hybrid Screen)
# [3] = target: GAL4 POSHdR bait (pPL269-pGBK-T7 GAL4 POSHdR; aa 53-888 of POSH, RING domain deleted) (human) (UniProt Q7Z6J0); assay: yeast two-hybrid screen, GAL4-BD POSHdR bait against HeLa cDNA GAL4-AD prey library; growth dependent on bait plasmid
# [4] = target: GAL4 POSHdR bait (pPL269-pGBK-T7 GAL4 POSHdR; aa 53-888 of POSH, RING domain deleted) (human) (UniProt Q7Z6J0); assay: yeast two-hybrid screen, GAL4-BD POSHdR bait against HeLa cDNA GAL4-AD prey library; remark: listed apart in the source
Molecule,binding [1],binding [4],also measured
"GOCAP1 golgi complex associated protein 1, 60 kDa (clone 3Gd111) (from UniProt Q9H3P7 1-528)",binds,–,binding [2]: binds
"PRKAR1A (Hs.280342), regulatory subunit of PKA, HeLa cDNA prey clone (from UniProt P10644 1-381)",binds,–,–
Human CblB protein in 3Gd114 (translation of cbl-B clone 3Gd114) (from UniProt Q13191 634-927),binds,–,binding [2]: binds
B1,–,binds,binding [3]: binds
B2,–,binds,–
B3,–,binds,–
B4,–,–,binding [3]: binds
B5,–,binds,–

# Source: patent publication US20060287337A1
